These are yes or no findings as the source states them, for the method shown. For some of these results: Binding seen in cells or lysates may run through a third protein. Some entries that bind do so weakly or less than the wild type.

Sequences of proteins named here, by UniProt entry; tags and fusion partners are left off. Residues count along the entry.
UniProt Q01887, residues 35-594: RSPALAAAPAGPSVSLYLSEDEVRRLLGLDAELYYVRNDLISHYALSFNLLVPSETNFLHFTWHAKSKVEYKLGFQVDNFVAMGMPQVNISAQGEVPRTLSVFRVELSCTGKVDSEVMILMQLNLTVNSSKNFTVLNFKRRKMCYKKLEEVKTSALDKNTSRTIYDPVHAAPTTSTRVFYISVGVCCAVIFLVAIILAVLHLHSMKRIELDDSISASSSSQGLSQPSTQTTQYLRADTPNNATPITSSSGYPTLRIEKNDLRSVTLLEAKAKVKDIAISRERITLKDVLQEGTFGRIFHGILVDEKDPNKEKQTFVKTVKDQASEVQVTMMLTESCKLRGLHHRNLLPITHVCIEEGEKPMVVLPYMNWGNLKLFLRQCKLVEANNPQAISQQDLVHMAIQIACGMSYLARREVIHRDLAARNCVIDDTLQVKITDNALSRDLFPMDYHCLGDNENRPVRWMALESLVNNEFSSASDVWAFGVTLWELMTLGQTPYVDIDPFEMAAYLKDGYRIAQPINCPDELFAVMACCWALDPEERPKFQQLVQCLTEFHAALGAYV
UniProt Q9QZQ1, residues 1007-1093: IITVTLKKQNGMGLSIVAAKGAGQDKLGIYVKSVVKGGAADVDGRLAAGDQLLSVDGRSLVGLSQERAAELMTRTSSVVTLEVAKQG
UniProt P54763, residues 19-986: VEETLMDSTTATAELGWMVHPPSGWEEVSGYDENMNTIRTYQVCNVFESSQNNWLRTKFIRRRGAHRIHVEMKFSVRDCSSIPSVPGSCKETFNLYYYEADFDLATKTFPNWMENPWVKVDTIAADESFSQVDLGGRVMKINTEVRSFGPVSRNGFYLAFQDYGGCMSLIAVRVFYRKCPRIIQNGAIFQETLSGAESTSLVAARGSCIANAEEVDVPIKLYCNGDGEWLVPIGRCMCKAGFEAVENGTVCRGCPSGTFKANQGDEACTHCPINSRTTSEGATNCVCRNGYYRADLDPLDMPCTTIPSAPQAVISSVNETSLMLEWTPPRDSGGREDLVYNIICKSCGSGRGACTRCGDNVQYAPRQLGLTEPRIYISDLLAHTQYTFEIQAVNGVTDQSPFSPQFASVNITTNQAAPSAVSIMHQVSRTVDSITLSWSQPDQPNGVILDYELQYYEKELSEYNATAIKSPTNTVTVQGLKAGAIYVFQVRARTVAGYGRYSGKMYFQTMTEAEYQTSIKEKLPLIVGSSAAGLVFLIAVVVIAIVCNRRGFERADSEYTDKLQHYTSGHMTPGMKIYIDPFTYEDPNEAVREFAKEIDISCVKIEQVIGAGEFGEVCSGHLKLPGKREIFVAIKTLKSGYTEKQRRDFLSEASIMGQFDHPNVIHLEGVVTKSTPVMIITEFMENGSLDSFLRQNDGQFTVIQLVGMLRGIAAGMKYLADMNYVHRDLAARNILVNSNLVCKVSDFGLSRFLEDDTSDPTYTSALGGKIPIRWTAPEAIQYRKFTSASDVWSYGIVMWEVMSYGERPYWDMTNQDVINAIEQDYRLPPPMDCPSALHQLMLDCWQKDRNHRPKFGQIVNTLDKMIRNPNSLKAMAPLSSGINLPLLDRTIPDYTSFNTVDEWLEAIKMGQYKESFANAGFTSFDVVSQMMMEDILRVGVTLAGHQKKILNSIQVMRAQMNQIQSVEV
UniProt P54754, residues 30-993: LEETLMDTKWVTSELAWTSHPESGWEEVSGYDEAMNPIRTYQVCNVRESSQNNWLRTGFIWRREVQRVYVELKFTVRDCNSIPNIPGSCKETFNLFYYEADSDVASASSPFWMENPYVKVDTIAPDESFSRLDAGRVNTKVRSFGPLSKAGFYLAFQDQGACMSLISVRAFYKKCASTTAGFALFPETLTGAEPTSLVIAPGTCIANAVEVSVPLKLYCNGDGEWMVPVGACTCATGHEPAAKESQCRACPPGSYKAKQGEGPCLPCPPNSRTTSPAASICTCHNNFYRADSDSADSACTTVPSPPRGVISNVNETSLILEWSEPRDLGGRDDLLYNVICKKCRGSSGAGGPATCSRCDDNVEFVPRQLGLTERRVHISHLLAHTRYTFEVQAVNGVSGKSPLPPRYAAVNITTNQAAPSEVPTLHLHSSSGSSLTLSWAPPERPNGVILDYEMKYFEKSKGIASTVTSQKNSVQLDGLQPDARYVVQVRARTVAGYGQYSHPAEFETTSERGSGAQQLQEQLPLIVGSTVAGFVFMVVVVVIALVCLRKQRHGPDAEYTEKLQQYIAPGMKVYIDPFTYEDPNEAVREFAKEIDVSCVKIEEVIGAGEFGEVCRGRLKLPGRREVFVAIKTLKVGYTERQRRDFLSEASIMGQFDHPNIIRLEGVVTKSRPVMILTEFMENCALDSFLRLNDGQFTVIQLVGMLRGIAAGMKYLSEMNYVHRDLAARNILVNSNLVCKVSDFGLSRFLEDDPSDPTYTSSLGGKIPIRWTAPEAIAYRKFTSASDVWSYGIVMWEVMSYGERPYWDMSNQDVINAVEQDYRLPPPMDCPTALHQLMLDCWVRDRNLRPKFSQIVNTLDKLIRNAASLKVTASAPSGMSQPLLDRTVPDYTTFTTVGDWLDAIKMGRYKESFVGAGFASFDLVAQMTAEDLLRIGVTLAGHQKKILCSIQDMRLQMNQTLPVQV
UniProt Q15375, residues 28-998: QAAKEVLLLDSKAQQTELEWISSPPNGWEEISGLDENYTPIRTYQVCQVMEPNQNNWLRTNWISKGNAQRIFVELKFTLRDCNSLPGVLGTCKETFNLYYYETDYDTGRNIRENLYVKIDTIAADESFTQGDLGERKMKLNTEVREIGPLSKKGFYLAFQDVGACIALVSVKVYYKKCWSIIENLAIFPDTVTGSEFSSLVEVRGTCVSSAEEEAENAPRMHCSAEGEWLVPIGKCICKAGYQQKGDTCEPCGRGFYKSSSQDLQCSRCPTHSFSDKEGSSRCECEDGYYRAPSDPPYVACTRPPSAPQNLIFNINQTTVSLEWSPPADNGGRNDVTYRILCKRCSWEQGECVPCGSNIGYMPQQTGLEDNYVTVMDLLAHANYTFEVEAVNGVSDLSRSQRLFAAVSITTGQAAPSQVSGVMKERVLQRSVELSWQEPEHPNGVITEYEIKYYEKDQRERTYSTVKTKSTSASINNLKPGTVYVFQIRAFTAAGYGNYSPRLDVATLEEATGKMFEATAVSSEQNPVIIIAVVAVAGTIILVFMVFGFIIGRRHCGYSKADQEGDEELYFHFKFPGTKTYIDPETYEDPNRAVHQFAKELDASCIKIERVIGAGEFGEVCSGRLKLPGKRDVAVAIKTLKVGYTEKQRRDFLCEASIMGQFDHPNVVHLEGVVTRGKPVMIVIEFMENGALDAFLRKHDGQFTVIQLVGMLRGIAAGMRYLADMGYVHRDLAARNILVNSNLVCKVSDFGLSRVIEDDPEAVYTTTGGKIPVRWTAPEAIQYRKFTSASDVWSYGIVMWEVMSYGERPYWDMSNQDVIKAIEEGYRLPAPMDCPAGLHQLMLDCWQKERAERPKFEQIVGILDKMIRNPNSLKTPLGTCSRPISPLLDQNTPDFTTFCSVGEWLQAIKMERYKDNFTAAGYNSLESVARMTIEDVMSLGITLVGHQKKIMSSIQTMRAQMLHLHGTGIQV

Assay [1] has as its target endogenous mouse RYK (mouse) (UniProt Q01887). In words: blot overlay with GST.AF-6.PDZ at about 5 ug/mL, detected with anti-GST (FIG. 1e).
Assay [2] shares this target. In words: co-immunoprecipitation from mouse tissue lysates (FIG. 3d).
For assay [3] the target is unchanged. In words: anti-RYK immunoprecipitation from 13.5 dpc mouse head lysates, Western blot.
The target in assay [4] is Myc2.RYK (double Myc epitope-tagged mouse RYK) (mouse) (UniProt Q01887). In words: co-immunoprecipitation from cotransfected 293T cells, Western blot. Background: Immunoblotting shows a protein as a band on a membrane.
Assay [5] shares this target. In words: co-immunoprecipitation from transfected 293T cells, Western blot (FIG. 3a).

“GST.AF-6.PDZ (glutathione S-transferase fusion with the PDZ domain of mouse AF-6) (from UniProt Q9QZQ1 1007-1093)”: the binding entry in assay [1] is recorded as “binds”. With “endogenous mouse EphB2 (from UniProt P54763 19-986) (receptor)”, the binding entry in assay [2] and in assay [3] was “binds” each time.

For the substance “endogenous mouse EphB3 (from UniProt P54754 30-993) (receptor)”, the binding entry in assay [2] and in assay [3] was “binds” in each case. Consider “human EphA7 (from UniProt Q15375 28-998) (receptor)”, for which the binding result in assay [4] and in assay [5] was “binds” each time.

The values above are taken from patent US20040115660A1 (published 2004).
